Experimental data from article PMC9826595.
No constants are given. Whether binding was seen depends on the method and setting. Binding can be weak; no strength is given.

Target: T1, Phaeodactylum tricornutum fucosyltransferase 1 (PtFucT1) (Phaeodactylum tricornutum) (UniProt B7G1M4)
T1 sequence: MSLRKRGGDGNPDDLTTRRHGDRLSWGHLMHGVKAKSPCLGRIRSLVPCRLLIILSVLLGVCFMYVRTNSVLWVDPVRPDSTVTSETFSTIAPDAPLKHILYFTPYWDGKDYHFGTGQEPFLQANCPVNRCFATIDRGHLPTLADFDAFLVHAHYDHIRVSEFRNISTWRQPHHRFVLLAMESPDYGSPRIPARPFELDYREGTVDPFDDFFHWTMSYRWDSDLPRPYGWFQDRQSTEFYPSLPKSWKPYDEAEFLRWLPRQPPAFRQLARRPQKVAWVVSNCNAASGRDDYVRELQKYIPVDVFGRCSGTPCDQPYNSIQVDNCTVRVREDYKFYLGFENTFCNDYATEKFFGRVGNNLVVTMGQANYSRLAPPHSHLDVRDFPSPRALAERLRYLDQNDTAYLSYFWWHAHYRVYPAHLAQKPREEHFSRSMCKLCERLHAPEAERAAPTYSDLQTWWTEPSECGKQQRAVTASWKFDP
Experiment: two-hybrid; split-ubiquitin type yeast two-hybrid in strain NMY51; bait pBT3-N-PtFucT1, prey pPR3-N-PtGnTI; growth on DDO (SD/-Leu/-Trp), TDO (SD/-Leu/-Trp/-His) and QDO (SD/-Leu/-Trp/-His/-Ade) media

- binding: binds
Substance: Phaeodactylum tricornutum N-acetylglucosaminyltransferase I (PtGnTI) (enzyme)
